Literature values, collected in article PMC10734620, “A blinded in vitro analysis of the intrinsic immunogenicity of hepatotoxic drugs: implications for preclinical risk assessment” (Toxicological Sciences, 2023).

Experiments:
[1] = set-up: method as in Sakatis et al., 2012; Schofield et al., 2021; conditions: Positive = above the threshold of concern; assays not listed negative; ref Sakatis et al., 2012; Schofield et al., 2021; cited from earlier work
[2] = set-up: method as in FDA DILIrank datasets; conditions: ref FDA DILIrank datasets; cited from earlier work
[3] = set-up: method as in earlier work; conditions: ref National Institute of Diabetes and Digestive and Kidney Diseases (2012); cited from earlier work

Row | SMILES | Routine Assays that are Positive (GSK) [1] | FDA Clinical Hepatotoxicity Concern [2] | LiverTox annotation: likelihood as cause of clinically apparent liver injury [3]
1 | O=C(O)c1cn(C2CC2)c2cc(N3CCNCC3)c(F)cc2c1=O [Ciprofloxacin] | None |  | 
2 | CN(C)CCOC(c1ccccc1)c1ccccc1 [Diphenhydramine] | None | No | Unlikely to be a cause of clinically apparent liver injury
